Laboratory results from the supplement of paper PMC12823440, “Inhibitors supercharge kinase turnover through native proteolytic circuits” (Nature, 2025).
The other results are listed elsewhere or left out. The calls rarely recur for the same compound in another form.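 In K562 cells expressing nanoluciferase-fused kinases, luminescence was recorded at 4 h intervals between 2 and 18 h, normalized as percent of control with DMSO at 100% and a positive control at 0%. A significant (2 sigma) signal drop marks a time point as decreased. The authors' rule for a hit is not shown and takes in more than the number of time points.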

Chains of the proteins cited; added tags and fusions are not shown. Lines headed by an entry give the natural chain unless they say otherwise; changes in a name come on top.
UniProt Q9Y616: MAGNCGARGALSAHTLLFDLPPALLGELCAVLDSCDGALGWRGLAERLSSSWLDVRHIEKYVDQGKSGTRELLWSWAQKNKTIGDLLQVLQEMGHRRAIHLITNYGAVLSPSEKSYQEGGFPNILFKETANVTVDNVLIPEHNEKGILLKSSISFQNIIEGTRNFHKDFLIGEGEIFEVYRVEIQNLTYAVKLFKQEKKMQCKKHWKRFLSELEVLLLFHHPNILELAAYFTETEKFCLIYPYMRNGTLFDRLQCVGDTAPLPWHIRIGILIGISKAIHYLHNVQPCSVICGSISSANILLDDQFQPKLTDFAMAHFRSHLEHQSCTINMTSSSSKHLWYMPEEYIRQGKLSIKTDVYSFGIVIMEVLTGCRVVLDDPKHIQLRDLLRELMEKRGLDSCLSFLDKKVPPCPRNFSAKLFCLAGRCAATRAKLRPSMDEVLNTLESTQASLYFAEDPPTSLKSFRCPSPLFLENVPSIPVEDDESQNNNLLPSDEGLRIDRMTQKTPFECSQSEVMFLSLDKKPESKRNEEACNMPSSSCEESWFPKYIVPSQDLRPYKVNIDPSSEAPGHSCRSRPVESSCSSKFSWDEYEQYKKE
UniProt P23458: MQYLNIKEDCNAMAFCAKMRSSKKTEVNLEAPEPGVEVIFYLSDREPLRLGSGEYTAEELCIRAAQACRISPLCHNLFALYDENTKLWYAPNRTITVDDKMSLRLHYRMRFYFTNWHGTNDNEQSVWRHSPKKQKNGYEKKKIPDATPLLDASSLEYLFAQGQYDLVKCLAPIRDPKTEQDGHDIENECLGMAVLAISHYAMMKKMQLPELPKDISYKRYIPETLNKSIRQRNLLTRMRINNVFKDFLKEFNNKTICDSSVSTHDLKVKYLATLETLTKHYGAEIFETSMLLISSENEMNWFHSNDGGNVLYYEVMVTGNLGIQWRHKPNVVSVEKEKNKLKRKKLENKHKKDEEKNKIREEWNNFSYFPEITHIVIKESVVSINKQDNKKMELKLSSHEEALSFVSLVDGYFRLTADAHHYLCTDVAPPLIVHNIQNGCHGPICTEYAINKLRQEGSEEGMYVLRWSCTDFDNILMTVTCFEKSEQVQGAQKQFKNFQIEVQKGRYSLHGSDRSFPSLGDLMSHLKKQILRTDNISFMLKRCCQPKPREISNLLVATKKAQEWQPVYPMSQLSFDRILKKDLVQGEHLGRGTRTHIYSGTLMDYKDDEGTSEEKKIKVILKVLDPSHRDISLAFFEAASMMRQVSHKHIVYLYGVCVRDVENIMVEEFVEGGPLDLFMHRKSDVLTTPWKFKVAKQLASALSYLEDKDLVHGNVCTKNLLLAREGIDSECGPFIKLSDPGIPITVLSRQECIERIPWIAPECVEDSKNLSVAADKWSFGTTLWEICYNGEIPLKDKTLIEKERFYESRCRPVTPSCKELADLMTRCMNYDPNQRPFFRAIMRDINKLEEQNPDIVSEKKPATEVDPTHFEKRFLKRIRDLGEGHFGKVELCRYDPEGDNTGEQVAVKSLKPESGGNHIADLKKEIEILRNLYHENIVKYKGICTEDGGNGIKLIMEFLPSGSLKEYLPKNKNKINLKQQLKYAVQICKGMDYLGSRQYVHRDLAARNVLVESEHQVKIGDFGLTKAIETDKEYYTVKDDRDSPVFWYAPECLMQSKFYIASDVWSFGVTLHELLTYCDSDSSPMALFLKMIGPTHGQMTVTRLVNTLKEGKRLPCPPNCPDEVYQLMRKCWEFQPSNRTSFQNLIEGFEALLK
UniProt P06239: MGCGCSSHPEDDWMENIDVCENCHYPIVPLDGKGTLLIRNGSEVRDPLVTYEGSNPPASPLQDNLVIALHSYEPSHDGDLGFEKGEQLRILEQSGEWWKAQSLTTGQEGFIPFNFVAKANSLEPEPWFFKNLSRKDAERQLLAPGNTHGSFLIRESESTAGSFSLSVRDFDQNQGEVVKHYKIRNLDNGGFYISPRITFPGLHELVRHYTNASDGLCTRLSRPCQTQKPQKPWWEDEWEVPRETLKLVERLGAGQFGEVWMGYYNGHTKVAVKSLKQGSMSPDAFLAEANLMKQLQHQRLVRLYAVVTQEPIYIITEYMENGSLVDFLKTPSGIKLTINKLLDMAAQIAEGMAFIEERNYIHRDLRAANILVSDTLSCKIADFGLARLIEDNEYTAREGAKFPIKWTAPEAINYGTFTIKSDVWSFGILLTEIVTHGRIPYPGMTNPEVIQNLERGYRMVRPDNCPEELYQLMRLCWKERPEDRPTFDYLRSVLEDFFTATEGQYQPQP
UniProt P53667: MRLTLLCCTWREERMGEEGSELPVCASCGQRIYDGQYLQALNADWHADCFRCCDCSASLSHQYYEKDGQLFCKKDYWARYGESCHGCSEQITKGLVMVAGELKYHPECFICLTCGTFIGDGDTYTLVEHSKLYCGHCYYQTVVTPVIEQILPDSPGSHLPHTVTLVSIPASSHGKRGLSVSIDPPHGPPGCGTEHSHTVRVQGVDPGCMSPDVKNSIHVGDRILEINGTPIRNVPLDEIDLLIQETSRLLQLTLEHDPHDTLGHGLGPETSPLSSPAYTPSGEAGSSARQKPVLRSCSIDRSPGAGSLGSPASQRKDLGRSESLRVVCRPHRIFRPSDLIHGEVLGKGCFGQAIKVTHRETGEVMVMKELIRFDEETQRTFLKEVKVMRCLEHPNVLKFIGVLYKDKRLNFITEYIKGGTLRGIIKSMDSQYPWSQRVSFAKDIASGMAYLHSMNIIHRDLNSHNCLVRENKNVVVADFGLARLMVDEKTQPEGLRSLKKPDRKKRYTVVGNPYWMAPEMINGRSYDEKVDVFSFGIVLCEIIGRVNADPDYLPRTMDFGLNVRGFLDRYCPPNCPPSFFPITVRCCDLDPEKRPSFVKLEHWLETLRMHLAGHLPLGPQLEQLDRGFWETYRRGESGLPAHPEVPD
UniProt P53671: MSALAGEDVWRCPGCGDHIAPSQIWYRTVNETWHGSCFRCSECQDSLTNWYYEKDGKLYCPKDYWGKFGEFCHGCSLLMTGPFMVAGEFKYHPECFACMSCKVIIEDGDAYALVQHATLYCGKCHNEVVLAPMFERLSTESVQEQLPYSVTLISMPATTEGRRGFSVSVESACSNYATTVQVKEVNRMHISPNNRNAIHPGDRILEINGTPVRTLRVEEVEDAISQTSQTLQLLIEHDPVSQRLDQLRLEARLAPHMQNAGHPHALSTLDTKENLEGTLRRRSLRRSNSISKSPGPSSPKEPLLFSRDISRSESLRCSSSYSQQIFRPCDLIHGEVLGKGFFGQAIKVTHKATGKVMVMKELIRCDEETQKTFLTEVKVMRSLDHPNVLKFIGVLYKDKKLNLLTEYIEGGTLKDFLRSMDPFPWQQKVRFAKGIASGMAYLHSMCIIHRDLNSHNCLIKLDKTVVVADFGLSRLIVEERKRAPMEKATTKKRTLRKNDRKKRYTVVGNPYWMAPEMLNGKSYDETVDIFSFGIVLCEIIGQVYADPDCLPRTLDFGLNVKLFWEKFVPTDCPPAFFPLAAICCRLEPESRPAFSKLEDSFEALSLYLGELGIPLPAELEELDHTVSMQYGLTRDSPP
UniProt Q8IWU2: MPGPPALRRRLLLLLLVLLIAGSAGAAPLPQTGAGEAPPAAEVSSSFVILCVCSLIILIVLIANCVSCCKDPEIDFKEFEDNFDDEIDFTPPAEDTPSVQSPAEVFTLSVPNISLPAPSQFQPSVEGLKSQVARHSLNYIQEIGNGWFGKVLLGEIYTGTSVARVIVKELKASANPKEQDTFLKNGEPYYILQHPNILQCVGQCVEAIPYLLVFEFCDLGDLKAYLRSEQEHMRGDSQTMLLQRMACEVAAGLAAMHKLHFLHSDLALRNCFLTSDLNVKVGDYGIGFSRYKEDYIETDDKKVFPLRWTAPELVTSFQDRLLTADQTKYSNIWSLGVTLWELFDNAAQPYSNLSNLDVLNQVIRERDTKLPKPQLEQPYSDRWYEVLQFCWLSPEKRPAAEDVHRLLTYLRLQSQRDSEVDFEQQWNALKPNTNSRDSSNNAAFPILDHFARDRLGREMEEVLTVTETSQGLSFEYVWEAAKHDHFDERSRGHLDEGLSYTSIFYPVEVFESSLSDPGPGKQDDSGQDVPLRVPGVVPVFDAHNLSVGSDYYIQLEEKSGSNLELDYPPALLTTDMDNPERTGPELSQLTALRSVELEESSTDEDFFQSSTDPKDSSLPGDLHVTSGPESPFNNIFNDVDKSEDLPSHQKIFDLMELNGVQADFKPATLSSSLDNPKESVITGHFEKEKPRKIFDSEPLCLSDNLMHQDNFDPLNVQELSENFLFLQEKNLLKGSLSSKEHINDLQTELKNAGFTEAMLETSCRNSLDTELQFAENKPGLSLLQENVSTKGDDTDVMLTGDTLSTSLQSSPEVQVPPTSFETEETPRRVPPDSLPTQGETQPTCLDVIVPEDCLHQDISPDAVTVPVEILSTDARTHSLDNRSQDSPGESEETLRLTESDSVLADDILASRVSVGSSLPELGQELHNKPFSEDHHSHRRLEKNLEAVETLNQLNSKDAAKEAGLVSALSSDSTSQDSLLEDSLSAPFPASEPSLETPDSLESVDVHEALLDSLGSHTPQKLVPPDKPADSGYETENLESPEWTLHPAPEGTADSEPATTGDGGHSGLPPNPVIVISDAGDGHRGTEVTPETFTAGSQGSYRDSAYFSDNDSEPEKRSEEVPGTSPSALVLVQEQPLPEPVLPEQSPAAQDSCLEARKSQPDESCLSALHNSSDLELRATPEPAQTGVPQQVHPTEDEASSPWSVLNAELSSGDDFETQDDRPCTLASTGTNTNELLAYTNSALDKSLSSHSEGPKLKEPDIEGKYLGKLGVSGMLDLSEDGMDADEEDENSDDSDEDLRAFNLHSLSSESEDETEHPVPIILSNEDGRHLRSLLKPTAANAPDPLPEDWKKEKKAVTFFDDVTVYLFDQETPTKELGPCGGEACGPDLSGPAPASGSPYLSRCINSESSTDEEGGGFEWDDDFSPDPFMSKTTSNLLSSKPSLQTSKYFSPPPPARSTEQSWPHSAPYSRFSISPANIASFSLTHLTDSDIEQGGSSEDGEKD
UniProt P07948: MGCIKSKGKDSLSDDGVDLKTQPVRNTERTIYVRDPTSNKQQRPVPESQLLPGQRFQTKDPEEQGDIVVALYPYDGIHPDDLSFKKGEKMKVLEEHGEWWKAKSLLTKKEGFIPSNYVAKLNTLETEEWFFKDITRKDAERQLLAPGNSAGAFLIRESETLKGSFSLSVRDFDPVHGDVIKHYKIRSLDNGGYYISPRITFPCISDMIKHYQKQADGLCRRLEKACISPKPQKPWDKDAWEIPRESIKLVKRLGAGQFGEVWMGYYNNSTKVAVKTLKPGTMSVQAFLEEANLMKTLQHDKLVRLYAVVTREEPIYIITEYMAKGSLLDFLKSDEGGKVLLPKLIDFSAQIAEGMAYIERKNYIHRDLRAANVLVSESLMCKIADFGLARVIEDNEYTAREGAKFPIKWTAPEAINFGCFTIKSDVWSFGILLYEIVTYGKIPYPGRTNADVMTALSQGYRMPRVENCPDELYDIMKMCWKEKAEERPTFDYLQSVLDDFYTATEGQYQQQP
UniProt Q12851: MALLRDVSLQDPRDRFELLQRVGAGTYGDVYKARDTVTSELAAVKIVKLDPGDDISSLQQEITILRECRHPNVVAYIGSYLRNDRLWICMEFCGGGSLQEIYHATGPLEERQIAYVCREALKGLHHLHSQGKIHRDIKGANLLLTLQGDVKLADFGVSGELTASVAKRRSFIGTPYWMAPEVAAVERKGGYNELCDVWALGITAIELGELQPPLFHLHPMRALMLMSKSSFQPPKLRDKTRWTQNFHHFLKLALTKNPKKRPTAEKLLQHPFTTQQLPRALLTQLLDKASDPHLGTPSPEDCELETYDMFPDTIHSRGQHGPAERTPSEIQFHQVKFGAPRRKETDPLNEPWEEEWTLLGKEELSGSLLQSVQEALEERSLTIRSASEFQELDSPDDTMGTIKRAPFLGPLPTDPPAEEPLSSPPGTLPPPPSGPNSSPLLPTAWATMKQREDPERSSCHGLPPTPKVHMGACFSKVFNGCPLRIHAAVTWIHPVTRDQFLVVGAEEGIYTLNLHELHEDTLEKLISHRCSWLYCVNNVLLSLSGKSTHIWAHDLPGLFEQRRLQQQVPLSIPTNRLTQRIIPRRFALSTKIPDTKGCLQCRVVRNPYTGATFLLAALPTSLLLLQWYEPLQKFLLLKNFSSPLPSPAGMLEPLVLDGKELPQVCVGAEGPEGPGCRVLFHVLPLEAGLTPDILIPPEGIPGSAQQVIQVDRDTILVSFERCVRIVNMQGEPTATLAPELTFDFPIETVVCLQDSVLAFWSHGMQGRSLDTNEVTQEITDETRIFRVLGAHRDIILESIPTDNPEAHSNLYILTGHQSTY

What was measured:
Test in all cases: kinase-Nluc reporter destabilization hit call (1 = scored as downregulated) (binary); higher = compound decreases kinase abundance
Details in all cases: K562; 2-18 h
[1] = target: IRAK3 (UniProt Q9Y616)
[2] = target: JAK1 (UniProt P23458)
[3] = target: LCK (UniProt P06239)
[4] = target: LIMK1 (UniProt P53667)
[5] = target: LIMK2 (UniProt P53671)
[6] = target: LMTK2 (UniProt Q8IWU2)
[7] = target: LYN (UniProt P07948)
[8] = target: MAP2K1 (UniProt Q02750)
[9] = target: MAP2K2 (UniProt P36507)
[10] = target: MAP4K2 (UniProt Q12851)

Measured: kinase-Nluc reporter destabilization hit call

CCn1c(=O)c(-c2ccc(-c3cncc(C)n3)cc2Cl)cc2cnc(NCCC3CCN(C)CC3)nc21 (10 µM)
inactive: [1] 0 | [2] 0 | [3] 0 | [4] 0 | [5] 0 | [6] 0 | [7] 0 | [8] 0 | [9] 0 | [10] 0

Cc1cc(Nc2cc3ncccc3c(N[C@@H]3C[C@H]4CC[C@@H](C3)N4CCC#N)n2)n[nH]1 [Izencitinib] (10 µM)
inactive: [1] 0 | [2] 0 | [3] 0 | [4] 0 | [5] 0 | [6] 0 | [7] 0 | [8] 0 | [9] 0 | [10] 0

CNCc1ccccc1-c1csc([C@@H](C)Nc2nc(C)nc3cc(OC)c(OC)cc23)c1 (2.5 µM)
inactive: [1] 0 | [2] 0 | [3] 0 | [4] 0 | [5] 0 | [6] 0 | [7] 0 | [8] 0 | [9] 0 | [10] 0

COc1cc(C(N)=O)nc(-c2cccc(C#C[C@]3(O)CCN(C)C3=O)c2)c1 (10 µM)
inactive: [1] 0 | [2] 0 | [3] 0 | [4] 0 | [5] 0 | [6] 0 | [7] 0 | [8] 0 | [9] 0 | [10] 0

Nc1ncnc2c1ncn2[C@@H]1O[C@H](CO)C[C@H]1O [Cordycepin] (10 µM)
inactive: [1] 0 | [2] 0 | [3] 0 | [4] 0 | [5] 0 | [6] 0 | [7] 0 | [8] 0 | [9] 0 | [10] 0

COc1ccc([C@H]2c3[nH]c4ccc(Cl)cc4c3CCN2C(=O)Oc2ccc(Cl)cc2)cc1 (2.5 µM)
inactive: [1] 0 | [2] 0 | [3] 0 | [4] 0 | [5] 0 | [6] 0 | [7] 0 | [8] 0 | [9] 0 | [10] 0

C[C@]1(O)CCC[C@@H]1n1c(=O)c(C(F)F)cc2cnc(NC3CCN(S(C)(=O)=O)CC3)nc21 (10 µM)
inactive: [1] 0 | [2] 0 | [3] 0 | [4] 0 | [5] 0 | [6] 0 | [7] 0 | [8] 0 | [9] 0 | [10] 0

CC(C)c1cnc(-c2cc(Cl)ccc2F)cc1Nc1ccncc1C(=O)NC(CO)CO (2.5 µM)
inactive: [1] 0 | [2] 0 | [3] 0 | [4] 0 | [5] 0 | [6] 0 | [7] 0 | [8] 0 | [9] 0 | [10] 0

Fc1ccc(-c2nc(-c3ccccc3F)[nH]c2-c2ccncc2)cc1 (2.5 µM)
inactive: [1] 0 | [2] 0 | [3] 0 | [4] 0 | [5] 0 | [6] 0 | [7] 0 | [8] 0 | [9] 0 | [10] 0

CC/C=C\C/C=C\C/C=C\CCCCCCCC(=O)O [α-Linolenic acid] (10 µM)
inactive: [1] 0 | [2] 0 | [3] 0 | [4] 0 | [5] 0 | [6] 0 | [7] 0 | [8] 0 | [9] 0 | [10] 0
